Experimental findings from paper PMC7797037 are described below.

First the molecules themselves.
T1: GTPBP5::FLAG (C-terminal FLAG-tagged GTPBP5) (human) (UniProt Q9H4K7)
T1 sequence: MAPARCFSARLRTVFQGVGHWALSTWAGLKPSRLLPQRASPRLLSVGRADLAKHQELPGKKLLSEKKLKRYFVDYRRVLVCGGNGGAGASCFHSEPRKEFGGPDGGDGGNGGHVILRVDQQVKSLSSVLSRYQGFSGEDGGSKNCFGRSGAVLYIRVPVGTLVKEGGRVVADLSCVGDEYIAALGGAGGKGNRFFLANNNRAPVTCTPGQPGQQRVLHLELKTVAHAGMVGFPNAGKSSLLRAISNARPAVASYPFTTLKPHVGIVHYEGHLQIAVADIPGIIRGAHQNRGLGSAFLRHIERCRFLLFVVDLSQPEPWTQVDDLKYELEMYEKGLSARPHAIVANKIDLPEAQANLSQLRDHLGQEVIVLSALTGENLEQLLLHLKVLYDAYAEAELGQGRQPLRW

B1: FASTKD4 (protein, UniProt Q969Z0 108-631)
chain: SHLLSEKPEDKGLLIQDAHFHQLLCLLNSQIASVWHGTLSKLLGSLYALGIPKASKELQSVEQEVRWRMRKLKYKHLAFLAESCATLSQEQHSQELLAELLTHLERRWTEIEDSHTLVTVMMKVGHLSEPLMNRLEDKCLELVEHFGPNELRKVLVMLAAQSRRSVPLLRAISYHLVQKPFSLTKDVLLDVAYAYGKLSFHQTQVSQRLATDLLSLMPSLTSGEVAHCAKSFALLKWLSLPLFEAFAQHVLNRAQDITLPHLCSVLLAFARLNFHPDQEDQFFSLVHEKLGSELPGLEPALQVDLVWALCVLQQAREAELQAVLHPEFHIQFLGGKSQKDQNTFQKLLHINATALLEYPEYSGPLLPASAVAPGPSALDRKVTPLQKELQETLKGLLGSADKGSLEVATQYGWVLDAEVLLDSDGEFLPVRDFVAPHLAQPTGSQSPPPGSKRLAFLRWEFPNFNSRSKDLLGRFVLARRHIVAAGFLIVDVPFYEWLELKSEWQKGAYLKDKMRKAVAEELAK
B2: MRM3 (enzyme, UniProt Q9HC36 41-420)
chain: VFPSGEVVEQKRAPGKQPRKAPSEASAQEQREKQPLEESASRAPSTWEESGLRYDKAYPGDRRLSSVMTIVKSRPFREKQGKILLEGRRLISDALKAGAVPKMFFFSRLEYLKELPVDKLKGVSLIKVKFEDIKDWSDLVTPQGIMGIFAKPDHVKMTYPKTQLQHSLPLLLICDNLRDPGNLGTILRSAAGAGCSKVLLTKGCVDAWEPKVLRAGMGAHFRMPIINNLEWETVPNYLPPDTRVYVADNCGLYAQAEMSNKASDHGWVCDQRVMKFHKYEEEEDVETGASQDWLPHVEVQSYDSDWTEAPAAVVIGGETYGVSLESLQLAESTGGKRLLIPVVPGVDSLNSAMAASILLFEGKRQLRGRAEDLSRDRSYH
B3: mitochondrial rRNA methyltransferase 2 (MRM2) (enzyme, UniProt Q9UI43 19-246)
chain: TVGSRCKNRTGAEHLWLTRHLRDPFVKAAKVESYRCRSAFKLLEVNERHQILRPGLRVLDCGAAPGAWSQVAVQKVNAAGTDPSSPVGFVLGVDLLHIFPLEGATFLCPADVTDPRTSQRILEVLPGRRADVILSDMAPNATGFRDLDHDRLISLCLTLLSVTPDILQPGGTFLCKTWAGSQSRRLQRRLTEEFQNVRIIKPEASRKESSEVYFLATQYHGRKGTVKQ

These are yes or no findings as the source states them, for the method shown. Binding seen in cells or lysates may run through a third protein. Here binding means that the protein was enriched with, or labelled near, the bait; the list need not be complete. No binding means not detected with the bait. Tags and fused reporters may be left off the sequences shown.

The assay has as its target T1, GTPBP5::FLAG (C-terminal FLAG-tagged GTPBP5) (human). In words: affinity purification with mass spectrometry; FLAG-IP from lysate of mitochondria isolated from HEK293T expressing GTPBP5::FLAG (48 h), buffers with 5 mM MgCl2, elution with 3X FLAG peptide; label-free quantitative mass spectrometry against control HEK293T without FLAG protein, n = 3.
For B1, the binding result is reported as “no binding”.

Turning to B2, the binding result was “no binding”.

For B3, the binding entry was “binds”.
